PubChem BioAssay AID1259308, NCATS, 2017
In all, the deposit lists about 59,000 reagents; this is a part drawn at random. About 1,510 of them (2.6%) count as active. 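Calls use total luciferase alone and ignore viability, so some active siRNAs may act by altering cell number.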 Reagents against one gene are numbered here. Further read-outs or replicates are left out here.

- Assay: 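Candidate targets for better recombinant protein yield in mammalian cells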 (primary screen)
- System: human HEK293 embryonic kidney cells stably expressing firefly luciferase (HEK-CMV-Luc2-Hygro)
- Knock-down reagent: single siRNA against human genes, 0.8 pmol siRNA per well
- Time to read-out: 72 h
- Detection: 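Luciferase light (ONE-Glo) measured on one replicate plate set and viability (CellTiter-Glo) on the other, scaled to a negative control siRNA, with robust z-scores and luciferase per cell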
- Direction: total luciferase, z-score and total luciferase, % of control: higher = more reporter protein produced; luciferase per cell, z-score: higher = more reporter output per viable cell
- Hit rule: 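An siRNA counts as active if its total luciferase robust z-score exceeds 3; genes with two or more such siRNAs out of three were retested with fresh siRNAs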
- Meaning of the calls: active = raised luciferase; inactive = no rise

gene symbol	reagent no.	total luciferase, z-score	total luciferase, % of control	luciferase per cell, z-score	outcome
PAICS	1	-0.119	79.5	0.696	inactive
PAICS	2	0.679	95.4	1.2	inactive
PAICS	3	-1.15	58.9	-1.56	inactive
PAICS	4	-0.862	64.7	-0.759	inactive
PAICS	5	-0.796	66.1	-0.401	inactive
PAICS	6	-0.00602	81.8	-0.453	inactive
SLC18A3	1	-0.883	64.3	-1.05	inactive
SLC18A3	2	0.375	89.3	-0.249	inactive
SLC18A3	3	0.613	94.1	0.331	inactive
CEP83	1	0.146	84.8	-0.051	inactive
CEP83	2	-1.38	54.4	-0.736	inactive
CEP83	3	0.245	86.8	-0.733	inactive
USP2	1	-0.333	75.3	-0.923	inactive
USP2	2	2.59	133	1.18	inactive
USP2	3	0.422	90.3	0.865	inactive
ALKBH3	1	-1.45	53.1	-1.19	inactive
ALKBH3	2	0.939	101	1.6	inactive
ALKBH3	3	-0.775	66.5	0.312	inactive
ADAM33	1	-0.62	69.6	-1.26	inactive
ADAM33	2	1.68	115	1.86	inactive
ADAM33	3	-0.651	68.9	0.806	inactive
TAAR6	1	1.4	110	1.11	inactive
TAAR6	2	-0.983	62.3	-1.24	inactive
TAAR6	3	-0.739	67.2	-1.45	inactive

2 of these entries, reformatted:
SLC18A3 #1 → total luciferase, z-score = -0.883; total luciferase, % of control = 64.3; luciferase per cell, z-score = -1.05; outcome = inactive
SLC18A3 #2 → total luciferase, z-score = 0.375; total luciferase, % of control = 89.3; luciferase per cell, z-score = -0.249; outcome = inactive

Next records follow.
gene symbol	reagent no.	total luciferase, z-score	total luciferase, % of control	luciferase per cell, z-score	outcome
HOXB9	1	-0.657	68.8	-0.445	inactive
HOXB9	2	0.0389	82.7	0.0154	inactive
HOXB9	3	-1.06	60.8	-0.0163	inactive
C3	1	-0.795	66.1	-0.563	inactive
C3	2	-1.29	56.2	-0.846	inactive
C3	3	-0.42	73.5	-0.328	inactive
QTRT1	1	-1.38	54.4	-1.71	inactive
QTRT1	2	0.00814	82	-0.319	inactive
QTRT1	3	-0.0873	80.2	-0.991	inactive
EMD	1	1.02	102	0.629	inactive
EMD	2	1.26	107	1.01	inactive
EMD	3	-0.492	72.1	-0.651	inactive
KCTD5	1	3.37	149	2.42	active
KCTD5	2	-0.917	63.7	-0.751	inactive
KCTD5	3	0.235	86.6	-0.669	inactive
GABRR3	1	-0.219	77.5	-0.736	inactive
GABRR3	2	-0.688	68.2	-0.673	inactive
GABRR3	3	-1.37	54.7	-1.88	inactive
EIF2AK3	1	0.0481	82.8	0.751	inactive
EIF2AK3	2	0.658	95	0.0845	inactive
EIF2AK3	3	-0.5	71.9	-1.28	inactive
GPR19	1	-0.299	75.9	0.53	inactive
GPR19	2	0.176	85.4	-0.15	inactive
GPR19	3	-1.06	60.7	-0.325	inactive
PRRT1B	1	-0.705	67.9	0.2	inactive
PRRT1B	2	-0.123	79.4	-0.151	inactive
PRRT1B	3	0.927	100	0.904	inactive
DCLK2	1	-0.817	65.6	-0.731	inactive
DCLK2	2	0.326	88.4	0.361	inactive
DCLK2	3	-1.24	57.3	-1.68	inactive
CYSRT1	1	-0.286	76.2	0.529	inactive
CYSRT1	2	-0.147	79	0.667	inactive
CYSRT1	3	0.776	97.3	1.05	inactive
